According to the supplement of paper PMC11098740:
The other results are listed elsewhere or left out. Many values rest on one well or one pass, so single values are uncertain.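 Pooled together, 41 HAP1 clones carry intronic fluorescent tags on 61 cancer-associated proteins, and each clone is recognized by its imaging pattern. Measurements are benchmarked against DMSO-treated control wells. dBET6, a BRD4 degrader, served as the positive control.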

The chains behind the UniProt entries cited, without tags or fusion partners.
UniProt O14980, whole entry: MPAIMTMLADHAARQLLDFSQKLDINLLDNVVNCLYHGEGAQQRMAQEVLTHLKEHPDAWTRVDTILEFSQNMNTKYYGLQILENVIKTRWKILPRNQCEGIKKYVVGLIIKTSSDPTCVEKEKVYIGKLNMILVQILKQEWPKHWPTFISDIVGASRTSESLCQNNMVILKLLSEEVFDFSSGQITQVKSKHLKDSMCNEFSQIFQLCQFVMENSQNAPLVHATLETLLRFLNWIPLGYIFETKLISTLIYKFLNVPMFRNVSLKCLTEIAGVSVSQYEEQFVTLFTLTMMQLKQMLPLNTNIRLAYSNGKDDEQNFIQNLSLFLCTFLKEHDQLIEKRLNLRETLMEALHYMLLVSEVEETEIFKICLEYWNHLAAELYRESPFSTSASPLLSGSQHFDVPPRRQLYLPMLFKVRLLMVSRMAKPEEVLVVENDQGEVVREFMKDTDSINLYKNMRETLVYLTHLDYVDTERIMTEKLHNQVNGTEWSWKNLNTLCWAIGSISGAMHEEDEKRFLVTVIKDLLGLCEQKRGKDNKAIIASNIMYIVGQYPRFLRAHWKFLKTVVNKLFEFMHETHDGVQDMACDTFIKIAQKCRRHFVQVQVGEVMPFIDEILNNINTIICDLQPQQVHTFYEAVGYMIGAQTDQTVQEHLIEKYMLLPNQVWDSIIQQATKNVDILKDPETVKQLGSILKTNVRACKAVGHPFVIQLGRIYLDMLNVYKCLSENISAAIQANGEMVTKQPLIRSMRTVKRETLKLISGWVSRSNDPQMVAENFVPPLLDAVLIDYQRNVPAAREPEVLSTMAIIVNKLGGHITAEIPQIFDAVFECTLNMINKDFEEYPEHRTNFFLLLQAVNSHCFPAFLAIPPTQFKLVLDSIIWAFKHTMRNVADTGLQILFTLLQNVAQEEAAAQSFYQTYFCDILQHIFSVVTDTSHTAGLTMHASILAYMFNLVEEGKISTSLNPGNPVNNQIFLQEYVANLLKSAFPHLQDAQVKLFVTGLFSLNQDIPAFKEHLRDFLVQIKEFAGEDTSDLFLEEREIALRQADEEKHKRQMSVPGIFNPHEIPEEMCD

Key:
[1] = target: XPO1 (intron 15 mScarlet tag, HAP1) (UniProt O14980); assay: XPO1 fluorescence intensity change vs DMSO (log2 fold change); higher = more XPO1 protein; conditions: 6 h
[2] = target: BRD4 (intron 10 mScarlet tag, HAP1) (UniProt O60885); assay: BRD4 median nuclear fluorescence intensity change vs DMSO (log2 fold change); higher = more BRD4 protein; conditions: 6 h

Row | SMILES | XPO1 fluorescence intensity change (log2) [1] | BRD4 median nuclear fluorescence intensity change (log2) [2]
1 | O=C(COc1ccccc1)Nc1ncc(Cc2cccc(C(F)(F)F)c2)s1 (10 µM) | 0.0676 | 0.0551
2 | Cc1cc(C)c(-c2csc(NC(=O)c3ccccn3)n2)c(C)c1 (10 µM) | -0.0188 | 0.0214
3 | Cc1ccc(CNC(N)=NCc2ccccc2)cc1 (10 µM) | 0.0385 | 0.0117
4 | O=C(Cc1ccc2c(c1)CCC2)NCc1cccs1 (10 µM) | 0.0562 | 0.031
5 | COc1ccc(C(C)=O)cc1COC(=O)c1c(C)noc1C(C)C (10 µM) | -0.16 | 0.00329
6 | O=C(Cc1ccc(-n2cccn2)cc1)Nc1ccc2oc(=O)[nH]c2c1 (10 µM) | 0.116 | 0.156
7 | CCOC(=O)c1c(NC(=O)COc2ccccc2OCC)sc2c1CC(C)(C)NC2(C)C (10 µM) | -0.118 | -0.0135
8 | N#CC(C#N)=C1C=CC=CN1/C(=C/c1cccc(F)c1)C(=O)c1cccs1 (10 µM) | 0.105 | 0.0639
9 | NNC(=O)c1cn(-c2ccccc2)nc1-c1ccc(F)cc1 (10 µM) | -0.169 | -0.0142
10 | Cn1ccnc1COc1ccc(C(=O)Nc2nc(C(C)(C)C)cs2)cc1 (1 µM) | -0.136 | 0.148
11 | Cn1c(=O)c2c(ncn2Cc2ccc(-c3ccccc3C#N)cc2)n(C)c1=O (10 µM) | 0.034 | 0.0387
12 | O=C(/C=C/c1cccc(NC(=O)c2ccc(Cl)cc2)c1)c1ccc(O)c(CCCl)c1 (10 µM) | -0.382 | 0.162
13 | COc1ccccc1CC(=O)N1CCCN(C)c2nc3ccccc3nc21 (10 µM) | 0.0941 | 0.197
14 | O=C(Nc1nc(-c2ccccn2)cs1)c1ccc(Cl)cc1 (0.1 µM) | 0.0191 | 0.111
15 | CC(C)(Oc1ccc(Cl)cc1)C(=O)Nc1nc(-c2ccccn2)cs1 (10 µM) | 0.0415 | -0.00947
16 | CC(=O)NCCc1nc2ccccc2n1CCCOc1cccc2ccccc12 (1 µM) | -0.102 | 0.127
17 | Cc1ccoc1C(=O)Nc1ccc2c(c1)CCN2C(=O)c1ccoc1 (10 µM) | 0.0426 | -0.0276
18 | CC(C)c1ccc(C(Nc2ccccn2)c2ccc3cccnc3c2O)cc1 (stereo not given) (10 µM) | 0.157 | 0.0666
19 | Cc1cc(NC(=O)c2ccc(CCl)cc2)ccc1S(=O)(=O)Nc1ccc(Br)cc1 (10 µM) | 0.0877 | 0.0436
20 | CC(C)c1cc(NC(=O)CCCn2c(=O)oc3ccccc32)n[nH]1 (10 µM) | -0.0283 | 0.356
21 | OC(CN1CCCC1)Cn1c2ccc(Cl)cc2c2cc(Cl)ccc21 (stereo not given) (10 µM) | -0.0245 | 0.0552
22 | Cc1ccc(C)c(-n2ccnc2SCC(=O)Nc2cc(C)no2)c1 (10 µM) | -0.13 | -0.0425
23 | Cc1ccc(C(=O)C2CCN(c3ncnc4ccsc34)CC2)cc1 (10 µM) | 0.0672 | 0.0371
24 | O=C(Nc1nc(-c2ccccn2)cs1)c1ccccc1 (10 µM) | 0.0108 | 0.14
25 | COCc1cc(C(=O)NCc2ccc(-c3ccc(O)cc3)cc2)no1 (10 µM) | 0.0382 | 0.173
26 | CCn1c(-c2nonc2N)nc2c(C#CC(C)(C)O)ncc(OC[C@H]3CCCNC3)c21 (20 µM) | -0.178 | -0.00864
27 | COc1ccc(C(C)(C)C)cc1NC(=O)c1cc(OC)c2c(c1)OCCO2 (10 µM) | -0.0591 | 1.68e-05

Row | SMILES | XPO1 fluorescence intensity change (log2) [1] | BRD4 median nuclear fluorescence intensity change (log2) [2]
28 | CCOc1ccccc1NC(=O)c1cccc(NC(=O)c2cccnc2)c1 (10 µM) | -0.038 | 0.0637
29 | CSCCC(=O)Nc1ccc(Oc2ccccc2Cl)cc1 (10 µM) | -0.01 | 0.0376
30 | O=C(CCCn1c(=O)oc2ccccc21)Nc1cccc(-c2ccsc2)c1 (0.1 µM) | -0.0942 | 0.0224
31 | N[C@H]1CC[C@H](N[C@@H]2C[C@H]2c2ccccc2)CC1 (10 µM) | -0.00995 | 0.0828
32 | CN(Cc1cnn(C)c1)C(=O)c1ccc(NC(=O)c2ccco2)s1 (10 µM) | 0.085 | 0.0109
33 | O=C(CSc1cccc[n+]1[O-])Nc1ccc(N2CCc3ccccc32)cc1 (10 µM) | 0.0434 | 0.0689
34 | CCOc1ncccc1CNC(=O)c1cc2c(nc3sccn32)s1 (10 µM) | -0.113 | -0.00275
35 | CCOc1ccccc1C(=O)NCCCC(=O)Nc1ccc(F)c(F)c1 (10 µM) | -0.276 | -0.0467
36 | COc1ccc(O)c(C(=O)c2cnc3cc4c(cc3c2)OCCO4)c1 (1 µM) | -0.0751 | -0.0402
37 | Oc1ccc(-c2csc(-c3cccc(F)c3)n2)cc1O (10 µM) | -0.131 | -0.15
38 | N#CC(C#N)=C1C=CC=CN1/C(=C/c1ccccc1OC(F)F)C(=O)c1ccccc1 (10 µM) | 0.22 | 0.103
39 | Nc1nc(CCl)nc2sc3c(c12)CCCCC3 (10 µM) | -0.0643 | 0.0611
40 | CCc1ccc(NC(=O)c2nnc(CCl)s2)cc1 (10 µM) | -0.00549 | 0.0754
41 | COc1ccc(/C=C/C(=O)c2ccc(O)c(CCCl)c2)cc1O (10 µM) | -0.724 | -0.0421
42 | N#CC(C#N)=C1C=CC=CN1/C(=C/c1cccc([N+](=O)[O-])c1)C(=O)c1ccccc1 (10 µM) | 0.0376 | 0.0305
43 | CC(C)c1ccc(C(=O)N=C(N)N)cc1S(C)(=O)=O [cariporide] (10 µM) | 0.0169 | -0.0408
44 | Cc1cccc(C(=O)Nn2cnc3sc(C)c(C)c3c2=O)n1 (10 µM) | -0.0896 | 0.00474
45 | Cc1ccccc1Cc1cnc(NC(=O)c2ccc(C(N)=O)cn2)s1 (10 µM) | 0.143 | -0.0146
46 | N#CC(C#N)=C1C=CC=CN1/C(=C/c1cccs1)C(=O)c1ccc(Br)cc1 (10 µM) | -0.408 | 0.149
47 | CC(C)(C)c1cnc(CSc2cnc(NC(=O)C3CCNCC3)s2)o1 (20 µM) | 0.264 | -0.0119
48 | Cc1cc(NCCCn2ccc3ccccc32)c2ccccc2n1 (10 µM) | 0.0948 | -0.0336
49 | COc1ccc2nc(NCc3ccccc3)[nH]c2c1 (10 µM) | 0.144 | -0.00186
50 | O=C(/C=C/c1ccc(F)cc1)c1ccc(O)c(CCCl)c1 (10 µM) | -0.223 | -0.0506
51 | COC(=O)c1cc(NC(=O)c2cnc3onc(C)c3c2)cc(C)c1C (10 µM) | -0.0233 | 0.0719
52 | CCc1ccccc1N1CCN(C(=O)c2cc(OC)c(OC)c(OC)c2)CC1 (1 µM) | -0.0357 | 0.0261
53 | Cc1ccc(C(C)C)c(OCC(=O)Nc2nc(C)c(C)s2)c1 (10 µM) | -0.129 | -0.0882
54 | COc1cc(C(=O)c2c(-c3ccccc3)cc3ccccn23)cc(OC)c1OC (1 µM) | -0.133 | -0.0139

Row | SMILES | XPO1 fluorescence intensity change (log2) [1] | BRD4 median nuclear fluorescence intensity change (log2) [2]
55 | CNc1ncc2cc(-c3cc(NC(=O)NCCC(C)(C)C)c(F)cc3C)c(C)nc2n1 (4.99874 µM) | 0.00431 | 0.0709
56 | COc1ccccc1-c1cc(C(=O)Nc2c3c(nn2C)CCC3)no1 (10 µM) | -0.0354 | -0.0113
57 | O=C(/C=C/c1ccccc1)c1ccc(O)c(CCCl)c1 (10 µM) | -0.262 | -0.048
58 | COC(=O)c1ccccc1NS(=O)(=O)c1ccc(OC)cc1 (10 µM) | -0.0482 | -0.059
59 | CC(C)NS(=O)(=O)c1ccc(C(=O)Nc2cc(N(C)C)ccc2C#N)cc1 (10 µM) | 0.0065 | 0.0239
60 | O=C(/C=C/c1ccccc1Br)c1ccc(O)c(CCCl)c1 (10 µM) | -0.0626 | -0.0925
61 | Cc1noc(C)c1COc1cc2ccccc2cc1C(=O)Nc1ccn(C)n1 (10 µM) | 0.00732 | 0.122
62 | Cc1cccc(C)c1OCC(=O)Nc1ccc(C2(C)NC(=O)NC2=O)cc1 (stereo not given) (10 µM) | 0.144 | 0.175
63 | O=C(CCc1ccco1)Nc1ccc(N2CCCC2)cn1 (1 µM) | 0.0631 | 0.0274
64 | Cc1nn(-c2ccccc2)c(C)c1CNC(=O)c1cc(-c2cccnc2)on1 (10 µM) | 0.0806 | 0.0212
65 | Fc1cc(CCl)c2c(c1)COC(c1ccsc1)O2 (stereo not given) (1 µM) | 0.216 | 0.0515
66 | Cc1ccc(-c2nc(C(=O)Nc3cccnc3N(C)C)cs2)o1 (10 µM) | -0.0556 | 0.119
67 | CC(C)(C)c1ccc(OCC(=O)Nc2ccccc2N2CCOCC2)cc1 (10 µM) | -0.132 | -0.101
68 | O=C(/C=C/c1ccccc1Cl)c1ccc(O)c(CCCl)c1 (10 µM) | 0.0937 | 1.59e-05
69 | COc1cc(C)c(NC(=O)c2ccc(SCc3cn4ccccc4n3)cc2)cc1OC (10 µM) | -0.104 | 0.0606
70 | O=[N+]([O-])c1ccc2c(c1)nc(CCl)n2-c1ccc(F)cc1 (10 µM) | 0.151 | 0.0646
71 | Cc1ccc(C(C)N(C)c2ncnc3ccsc23)s1 (stereo not given) (10 µM) | 0.00133 | 0.095
72 | CC(C)CC(=O)Nc1ccc(NC(=O)c2ccc(CSC(F)F)o2)cc1 (10 µM) | 0.0738 | 0.0401
73 | O=C(Nc1ccc(N2CCCCCC2)cc1)c1ccccc1 (10 µM) | 0.0339 | 0.0843
74 | Cc1ccccc1CC(=O)Nc1nc2c(C(F)(F)F)cccc2s1 (10 µM) | -0.0969 | -0.0308
75 | Nc1ccccc1C(=O)Nc1ccc(Cl)cn1 (0.1 µM) | -0.165 | 0.0367
76 | O=S(=O)(Cc1cccc(Cl)c1)c1nc2ccccc2s1 (0.1 µM) | -0.0453 | -0.0255
77 | Cn1cc(-c2nc(N[C@@H]3CCCC[C@@H]3N)c(F)c3c2C(=O)NC3)cn1 (10 µM) | 0.107 | 0.0877
78 | Cc1ccc(NC(=O)CCc2ccc(C#N)cc2)nc1 (1 µM) | 0.195 | 0.0519
79 | COc1cc(CCl)c([N+](=O)[O-])cc1OC(F)F (10 µM) | 0.211 | -0.0219
80 | O=C(NCc1noc(CCl)n1)c1ccccc1 (1 µM) | -0.111 | -0.0746

Of the compounds above, 5 have a furan ring, fused or not.
Row | SMILES | XPO1 fluorescence intensity change (log2) [1] | BRD4 median nuclear fluorescence intensity change (log2) [2]
17 | Cc1ccoc1C(=O)Nc1ccc2c(c1)CCN2C(=O)c1ccoc1 (10 µM) | 0.0426 | -0.0276
32 | CN(Cc1cnn(C)c1)C(=O)c1ccc(NC(=O)c2ccco2)s1 (10 µM) | 0.085 | 0.0109
63 | O=C(CCc1ccco1)Nc1ccc(N2CCCC2)cn1 (1 µM) | 0.0631 | 0.0274
66 | Cc1ccc(-c2nc(C(=O)Nc3cccnc3N(C)C)cs2)o1 (10 µM) | -0.0556 | 0.119
72 | CC(C)CC(=O)Nc1ccc(NC(=O)c2ccc(CSC(F)F)o2)cc1 (10 µM) | 0.0738 | 0.0401
